Source: patent US20180044401A1
These are yes or no findings as the source states them, for the method shown. Some binding calls cover weakened binding; strength is not graded here.

Target: IgG-Fc derived from anti-RSV monoclonal antibody (Palivizumab) (human) [IgG part: P01857]
Assay: SPR Biacore 3000

- binding: binds
B1: immunoglobulin G-binding peptide having the amino acid sequence of SEQ ID NO: 2 (designed binder)
chain: GPLGSTTYKLILNGKTLTGYTTAIAADAATAEIVLKQFANDNGIDGEWTYDDATKTFTVTE
